Measured values reported in patent publication US9260388B2, “Process for preparing alkyl pyroglutamic acids” (DOW GLOBAL TECHNOLOGIES LLC, priority 2011, dated 2016).
Some results were stated once for a whole list of compounds, not compound by compound.

Test: Water solubility of sodium salts
Format: physicochemical
Conditions: sodium salt in water, neutralized with NaOH; no saturated solution prepared
Method: Selected N-alkyl pyroglutamic acids are converted into their sodium salt by neutralizing them in water with sodium hydroxide. In general, a known amount of sample is placed in a vial and a known amount of water is added. Sample is neutralized with 25 wt % sodium hydroxide in water until pH is >7. Mild heating (50° C.) is applied when necessary to aid dissolution. The final mass is recorded. The weight percent of the solution is determined by mass of the sodium salt over the total mass of solution, and multiplying by 100. The pH of the solution is recorded after neutralization. No effort was done to prepare a saturated solution.

SMILES: CCCCCCCCCCC(CCCCCCCC)CN1C(=O)CCC1C(=O)O (stereo not shown) [Example 4]
- Solubility: > 10 wt %
